# In the supplement of paper PMC8728848:
# Some of the results follow.
# B1: Blon0732mut (Bifidobacterium longum) (protein)
# chain: MPTSEHKADDATRHLTLIPAPVTLEYTHGTALIGPLVTIEDADQSWETLPIEQLSDELRHRYGVTVLRRRTHGTVISLGLDSRLAHDEYTLDVSESEGIRVRGGGESGLRYGLQTLRQIIGQTSRAIPCLHIQDKPAFAVRAYSLDVTRGRVPTMEFLTWFVDQLALYKYNQFQLYVEHAFAFVELSEAWRGTDPLTAADITYLDEYCARRGIELVPSLATFGHMYMNLRTREHRGLGEFPEDADRPFSFIERMEHHTLNAADPKAHDFASRLIEEYAPLFRSKSFNIGGNETFDLGRGRSAQDAPEAGRDELYAGFVRDLCETLARHGRQPMLWADIALESPRTMDLLPGDITMLNWMYEPQIDESKIQTIATQGRRQFVCPAVRAWSRFFPDYAGAWLNTYHMALAGTKYDAEGMVVTDWGDYGHVNDPRLSVPGLCYGAQNAWNPIEIDAHEMNRRISALVYGDESGRIMDCLARIDSDGVSFPWDLAVQVLELEYGSGTGALNMDVAACMERSSGGKLTLDRTLGCDDARRRMLQWNRERIERRRDCDQVLRDCGDAFAGLDKGGLTAEFLSVMLDGQRLFNELGEELLALADGKDVGSGANRLAADLELWFERYRAQWLSVGRHAELARIAHVVWSLADILRRGAL
# Columns and labels:
# Assay in all cases: glycan array binding signal (z-score within array); higher = stronger binding
# Details in all cases: glycan notation: IUPAC condensed, linker removed
# [1] = biological target: Neu5Ac(a2-3)Gal(b1-4)GlcNAc(b1-6)[Gal(b1-3)]GalNAc
# In short: (§1)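 Arrays were curated from the Consortium for Functional Glycomics database, 3228 in total, and kept only where the protein sequence was available. Binding is expressed as a within-array Z-score. This score was averaged across arrays of the same protein sequence at different concentrations or buffers and across linkers, and negative values can be read as non-binding.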
# [2] = biological target: Neu5Ac(a2-3)Gal(b1-4)GlcNAc(b1-6)[Neu5Ac(a2-3)Gal(b1-3)]GalNAc
# In short: as §1
# [3] = biological target: Neu5Ac(a2-3)Gal(b1-4)GlcNAc6S
# In short: as §1
# [4] = biological target: Neu5Ac(a2-3)Gal(b1-4)[Fuc(a1-3)]GlcNAc
# In short: as §1
# [5] = biological target: Neu5Ac(a2-3)Gal(b1-4)[Fuc(a1-3)]GlcNAc(b1-2)Man
# In short: as §1
# [6] = biological target: Neu5Ac(a2-3)Gal(b1-4)[Fuc(a1-3)]GlcNAc(b1-3)Gal
# In short: as §1
# [7] = biological target: Neu5Ac(a2-3)Gal(b1-4)[Fuc(a1-3)]GlcNAc(b1-3)Gal(b1-4)GlcNAc
# In short: as §1
# [8] = biological target: Neu5Ac(a2-3)Gal(b1-4)[Fuc(a1-3)]GlcNAc(b1-3)Gal(b1-4)[Fuc(a1-3)]GlcNAc(b1-3)Gal(b1-4)[Fuc(a1-3)]GlcNAc
# In short: as §1
# [9] = biological target: Neu5Ac(a2-3)Gal(b1-4)[Fuc(a1-3)]GlcNAc(b1-3)GalNAc
# In short: as §1
# [10] = biological target: Neu5Ac(a2-3)Gal(b1-4)[Fuc(a1-3)]GlcNAc(b1-6)[Gal(b1-3)]GalNAc
# In short: as §1
# [11] = biological target: Neu5Ac(a2-3)Gal(b1-4)[Fuc(a1-3)]GlcNAc(b1-6)[Neu5Ac(a2-3)Gal(b1-3)]GalNAc
# In short: as §1
# [12] = biological target: Neu5Ac(a2-3)Gal(b1-4)[Fuc(a1-3)]GlcNAc6S
# In short: as §1
# [13] = biological target: Neu5Ac(a2-3)Gal6S(b1-4)GlcNAc
# In short: as §1
# [14] = biological target: Neu5Ac(a2-3)Gal6S(b1-4)[Fuc(a1-3)]GlcNAc
# In short: as §1
# Neu5Ac(a2-3)GalNAc = biological target: Neu5Ac(a2-3)GalNAc
# In short: as §1
# [15] = biological target: Neu5Ac(a2-3)GalNAc(b1-4)GlcNAc
# In short: as §1
# [16] = biological target: Neu5Ac(a2-3)[GalNAc(b1-4)]Gal(b1-4)Glc
# In short: as §1
# [17] = biological target: Neu5Ac(a2-3)[GalNAc(b1-4)]Gal(b1-4)GlcNAc
# In short: as §1
# [18] = biological target: Neu5Ac(a2-3)[GalNAc(b1-4)]Gal(b1-4)GlcNAc(b1-3)GalNAc
# In short: as §1
# [19] = biological target: Neu5Ac(a2-3)[Neu5Ac(a2-6)]GalNAc
# In short: as §1
# Neu5Ac(a2-6)Gal = biological target: Neu5Ac(a2-6)Gal
# In short: as §1
# [20] = biological target: Neu5Ac(a2-6)Gal(b1-3)GlcNAc(b1-3)[Gal(b1-4)GlcNAc(b1-6)]Gal(b1-4)Glc
# In short: as §1
# Neu5Ac(a2-6)Gal(b1-4)Glc = biological target: Neu5Ac(a2-6)Gal(b1-4)Glc
# In short: as §1
# [21] = biological target: Neu5Ac(a2-6)Gal(b1-4)GlcNAc
# In short: as §1
# [22] = biological target: Neu5Ac(a2-6)Gal(b1-4)GlcNAc(b1-2)Man
# In short: as §1
# [23] = biological target: Neu5Ac(a2-6)Gal(b1-4)GlcNAc(b1-2)Man(a1-3)Man(b1-4)GlcNAc(b1-4)GlcNAc
# In short: as §1
# [24] = biological target: Neu5Ac(a2-6)Gal(b1-4)GlcNAc(b1-2)Man(a1-3)[Gal(b1-4)GlcNAc(b1-2)Man(a1-6)]Man(b1-4)GlcNAc(b1-4)GlcNAc
# In short: as §1
# [25] = biological target: Neu5Ac(a2-6)Gal(b1-4)GlcNAc(b1-2)Man(a1-3)[GlcNAc(b1-2)Man(a1-6)]Man(b1-4)GlcNAc(b1-4)GlcNAc
# In short: as §1
# [26] = biological target: Neu5Ac(a2-6)Gal(b1-4)GlcNAc(b1-2)Man(a1-3)[GlcNAc(b1-4)][Neu5Ac(a2-6)Gal(b1-4)GlcNAc(b1-2)Man(a1-6)]Man(b1-4)GlcNAc(b1-4)GlcNAc
# In short: as §1
# [27] = biological target: Neu5Ac(a2-6)Gal(b1-4)GlcNAc(b1-2)Man(a1-3)[Man(a1-6)]Man(b1-4)GlcNAc(b1-4)GlcNAc
# In short: as §1
binder,measurement,setting,value
B1,glycan array binding signal (z-score),[1],-0.59
same,glycan array binding signal (z-score),[2],-0.762
same,glycan array binding signal (z-score),[3],-0.117
same,glycan array binding signal (z-score),[4],0.086
same,glycan array binding signal (z-score),[5],-0.353
same,glycan array binding signal (z-score),[6],-0.303
same,glycan array binding signal (z-score),[7],-0.082
same,glycan array binding signal (z-score),[8],-0.236
same,glycan array binding signal (z-score),[9],2.5
same,glycan array binding signal (z-score),[10],0.262
same,glycan array binding signal (z-score),[11],-0.574
same,glycan array binding signal (z-score),[12],0.259
same,glycan array binding signal (z-score),[13],-0.041
same,glycan array binding signal (z-score),[14],-0.326
same,glycan array binding signal (z-score),Neu5Ac(a2-3)GalNAc,-1.08
same,glycan array binding signal (z-score),[15],-0.99
same,glycan array binding signal (z-score),[16],-0.039
same,glycan array binding signal (z-score),[17],-0.956
same,glycan array binding signal (z-score),[18],-0.009
same,glycan array binding signal (z-score),[19],0.415
same,glycan array binding signal (z-score),Neu5Ac(a2-6)Gal,-0.088
same,glycan array binding signal (z-score),[20],0.143
same,glycan array binding signal (z-score),Neu5Ac(a2-6)Gal(b1-4)Glc,-0.105
same,glycan array binding signal (z-score),[21],0.155
same,glycan array binding signal (z-score),[22],0.009
same,glycan array binding signal (z-score),[23],1.73
same,glycan array binding signal (z-score),[24],0.038
same,glycan array binding signal (z-score),[25],-0.737
same,glycan array binding signal (z-score),[26],-0.459
same,glycan array binding signal (z-score),[27],-0.462

# Exported bar-delimited: part of the list above
binder | measurement | setting | value
B1 | glycan array binding signal (z-score) | [21] | 0.155
same | glycan array binding signal (z-score) | [22] | 0.009
